Experimental data from article PMC4664558 (Clinical Pharmacology and Therapeutics, 2015).

How the values were obtained:
OATP1B2 = target: T1, OATP1B2 (Rattus norvegicus, UniProt Q9QZX8); test: Inhibition of E217βDG active uptake in cryopreserved rat hepatocytes
T1 sequence (Q9QZX8 1-687): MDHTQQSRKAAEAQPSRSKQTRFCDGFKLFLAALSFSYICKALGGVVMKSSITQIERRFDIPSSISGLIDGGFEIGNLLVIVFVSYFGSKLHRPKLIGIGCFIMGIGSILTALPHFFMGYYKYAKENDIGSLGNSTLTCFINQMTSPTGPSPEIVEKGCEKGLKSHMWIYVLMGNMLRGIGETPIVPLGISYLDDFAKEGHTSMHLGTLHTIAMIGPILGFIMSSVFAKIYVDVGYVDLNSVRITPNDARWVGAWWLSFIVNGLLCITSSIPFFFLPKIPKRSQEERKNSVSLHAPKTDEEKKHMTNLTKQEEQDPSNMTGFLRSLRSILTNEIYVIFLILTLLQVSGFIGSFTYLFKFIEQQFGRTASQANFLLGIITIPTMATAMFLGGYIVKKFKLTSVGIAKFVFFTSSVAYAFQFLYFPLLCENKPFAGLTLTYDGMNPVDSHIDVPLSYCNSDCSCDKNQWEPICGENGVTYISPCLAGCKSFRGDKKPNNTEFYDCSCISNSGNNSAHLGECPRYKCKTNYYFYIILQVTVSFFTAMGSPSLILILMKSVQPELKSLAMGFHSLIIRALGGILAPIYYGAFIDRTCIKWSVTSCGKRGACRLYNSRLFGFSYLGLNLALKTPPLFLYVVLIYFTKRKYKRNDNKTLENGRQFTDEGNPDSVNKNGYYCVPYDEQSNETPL

[1] = Peak plasma / gut / hepatic inlet concentration at the highest clinical dose; details: Cmax + (ka x Dose x FaFg/Qh)

## Clc1ccc2c(c1)CCc1cccnc1C2=C1CCNCC1 [Desloratadine]
OATP1B2
  IC50: 140 µM
[1]
  Maximal hepatic inlet concentration ([I]inlet,max): 1.088 µM
